# At least one structure is not confirmed: it was looked up by name or label, or the drawing left a doubt.
# Molecular target: T1, human TWIK-1 K+ channel, SEQ ID NO: 2 (Homo sapiens, UniProt O00180)
# T1 construct: expressed in transfected cells; host or cells: Xenopus laevis oocytes injected with cRNA transcribed from pEXO-TWIK-1
# T1 sequence (O00180 1-336): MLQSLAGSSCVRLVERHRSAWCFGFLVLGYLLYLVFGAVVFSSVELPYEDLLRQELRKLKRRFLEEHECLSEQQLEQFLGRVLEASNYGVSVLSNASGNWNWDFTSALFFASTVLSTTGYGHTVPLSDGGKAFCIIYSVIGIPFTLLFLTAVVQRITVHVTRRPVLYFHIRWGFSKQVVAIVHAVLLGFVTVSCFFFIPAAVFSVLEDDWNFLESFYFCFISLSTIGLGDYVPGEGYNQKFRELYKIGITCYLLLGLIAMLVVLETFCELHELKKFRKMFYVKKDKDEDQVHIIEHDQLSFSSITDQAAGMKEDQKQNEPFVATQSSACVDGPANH
# Assay: TWIK-1 K+ currents, two-electrode voltage clamp in Xenopus oocytes injected with TWIK-1 cRNA
# Assay type: cell-based
# Conditions: 10 µM, activation of protein kinase A
# Description: For the functional study, the coding sequence of TWIK-1 was inserted between the noncoding sequences 5' and 3' of Xenopus globin in the vector pEXO (Lingueglia, E. et al., 1993, J. Biol. Chem., 269, 13736-13739). A complementary RNA (cRNA) was transcribed of this construction and injected in the oocytes of X laevis. In a 0.3ml perfusion chamber, a single oocyte was impaled on two standard glass microelectrodes (0.5 - 2.0 MW) charged with 3 M KCI and maintained under voltage-clamp with a Dagan TEV200 amplifier. The bath solution contained 98 mM KCl,1.8 raM CaCl2 […] and 5 mM HEPES at pH 7.4 with KOH. Stimulation of the preparation, data acquisition and analyses were carried out with the pClamp program (Axon Instruments) USA3.
# Intracellular acidification of the oocytes was produced using two methods: • superfusion with a solution enriched in CO2 which produces acidification by a mechanism involving the bicarbonate transport system (Guillemare, E. et al., 1995, Mol. Pharmacol., 47, 588-594); • treatment with dinitrophenol (DNP), which is a metabolic inhibitor that decouples the H+ gradient in mitochondria and induces internal acidity (Pedersen, P. L. and Carafoli, E., 1997, Trends Biol. Sci., 12, 146-189). […]
structure (smiles),measurement,value
C=C[C@@]1(C)CC(=O)[C@]2(O)[C@@]3(C)[C@@H](O)CCC(C)(C)[C@@H]3[C@H](O)[C@H](OC(C)=O)[C@@]2(C)O1 [forskolin],effect on the activity of TWIK-1,does not affect
